No constants are given. Whether binding was seen depends on the method and setting. Binding seen in cells or lysates may run through a third protein. Binding calls can cover weak binding; strength is not graded here. Where a sequence is shown, tags or fusion partners need not be part of it.
Biological target: T1, FLAG-MORC2a (mouse) (UniProt Q69ZX6)
T1 sequence: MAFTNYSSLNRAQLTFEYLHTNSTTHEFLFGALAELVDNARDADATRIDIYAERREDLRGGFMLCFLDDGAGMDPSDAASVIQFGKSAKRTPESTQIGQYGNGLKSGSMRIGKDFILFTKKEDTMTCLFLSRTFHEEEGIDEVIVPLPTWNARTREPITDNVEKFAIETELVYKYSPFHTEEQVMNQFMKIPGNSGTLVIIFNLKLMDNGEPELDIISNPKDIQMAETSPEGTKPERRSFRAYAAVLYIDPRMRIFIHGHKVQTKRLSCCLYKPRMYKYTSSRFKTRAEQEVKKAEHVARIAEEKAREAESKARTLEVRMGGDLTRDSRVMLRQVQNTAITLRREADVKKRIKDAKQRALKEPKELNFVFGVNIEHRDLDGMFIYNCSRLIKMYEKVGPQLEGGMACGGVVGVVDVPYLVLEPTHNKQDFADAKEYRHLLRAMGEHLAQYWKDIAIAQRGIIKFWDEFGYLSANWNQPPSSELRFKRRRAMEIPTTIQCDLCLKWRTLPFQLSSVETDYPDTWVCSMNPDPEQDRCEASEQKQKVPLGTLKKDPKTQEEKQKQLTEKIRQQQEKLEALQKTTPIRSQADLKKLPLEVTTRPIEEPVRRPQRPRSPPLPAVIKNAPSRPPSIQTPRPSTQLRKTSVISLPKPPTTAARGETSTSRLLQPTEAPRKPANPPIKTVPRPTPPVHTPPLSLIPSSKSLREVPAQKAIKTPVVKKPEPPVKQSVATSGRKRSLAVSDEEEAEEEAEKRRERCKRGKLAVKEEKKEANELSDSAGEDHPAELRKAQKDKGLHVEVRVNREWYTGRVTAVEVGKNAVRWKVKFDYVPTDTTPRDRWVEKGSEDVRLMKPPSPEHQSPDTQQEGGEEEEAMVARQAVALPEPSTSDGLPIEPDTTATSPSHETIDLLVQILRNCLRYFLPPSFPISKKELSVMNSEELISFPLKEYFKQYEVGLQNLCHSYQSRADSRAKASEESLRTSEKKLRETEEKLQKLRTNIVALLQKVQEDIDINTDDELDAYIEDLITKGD
Experiment: co-IP; anti-FLAG affinity gel, 6 h, on precleared lysates of cells ectopically expressing the tagged proteins; rinsed four times in lysis buffer (50 mM HEPES pH 8.0, 150 mM NaCl, 0.5% Triton-X 100); western blot

binding	Substance
binds	GFP-LIPIN2
binds	GFP-LIPIN3
binds	GFP-LIPIN1

From PMC8575914
